The values below come from doi:10.1101/2022.08.30.505852.

Chains of the proteins cited; added tags and fusions are not shown. A line that says so, or that is headed by a name, gives the form on record, which may keep a tag or linker. Residues count along the entry.
GB1-βCAT_(CTERM), β-catenin residues 666-781 fused to the B1 domain of Streptococcus protein G (P35222, residues 666-781): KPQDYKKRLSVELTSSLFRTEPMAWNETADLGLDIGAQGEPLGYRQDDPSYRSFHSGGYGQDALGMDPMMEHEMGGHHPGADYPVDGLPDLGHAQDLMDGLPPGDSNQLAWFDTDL
GB1-βCAT_(666-729), β-catenin residues 666-729 fused to GB1 (P35222, residues 666-729): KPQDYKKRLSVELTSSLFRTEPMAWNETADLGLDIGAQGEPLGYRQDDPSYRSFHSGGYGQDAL
GB1-βCAT_(TAD2), β-catenin residues 730-781 fused to GB1 (P35222, residues 730-781): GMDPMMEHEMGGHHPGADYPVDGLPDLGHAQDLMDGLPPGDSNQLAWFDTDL
βCAT_(750-781), β-catenin residues 750-781 (P35222, residues 750-781): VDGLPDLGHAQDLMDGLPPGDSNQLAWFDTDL
TAZ1 domain of CBP (residues 346-440) (Q92793, residues 346-440): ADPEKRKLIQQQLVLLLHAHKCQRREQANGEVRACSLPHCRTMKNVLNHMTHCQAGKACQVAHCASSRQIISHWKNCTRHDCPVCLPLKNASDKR
KIX domain of CBP (residues 586-673) (Q92793, residues 586-673): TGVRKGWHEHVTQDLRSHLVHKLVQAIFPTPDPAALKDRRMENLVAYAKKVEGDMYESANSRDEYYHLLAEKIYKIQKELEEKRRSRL

No constants are given. Whether binding was seen depends on the method and setting. Some results given as binding are weak or reduced against the parent protein; the word gives no strength.

Experiment [1] has as its target βCAT_(750-781), β-catenin residues 750-781 (human) (UniProt P35222). The experiment can be described thus: NMR titration.
The target in experiment [2] is βCAT_(CTERM), β-catenin residues 666-781 (human) (UniProt P35222). The experiment can be described thus: NMR titration.
Experiment [3] concerns the target GB1-βCAT_(CTERM), β-catenin residues 666-781 fused to the B1 domain of Streptococcus protein G (human) (UniProt P35222). In words: pull-down.
Experiment [4] concerns the target GB1-βCAT_(TAD2), β-catenin residues 730-781 fused to GB1 (human) (UniProt P35222). The experiment can be described thus: pull-down.
Experiment [5] concerns the target GB1-βCAT_(666-729), β-catenin residues 666-729 fused to GB1 (human) (UniProt P35222). In words: pull-down.
Experiment [6] addresses TAZ1 domain of CBP (residues 346-440) (UniProt Q92793). In words: NMR titration.

With “TAZ1 domain of CBP (residues 346-440) (from UniProt Q92793 346-440) (domain or fragment)”, the binding result in experiment [1], in experiment [2], in experiment [3] and in experiment [4] was “binds” each time.
Regarding “KIX domain of CBP (residues 586-673) (from UniProt Q92793 586-673) (domain or fragment)”, the binding result in experiment [5], in experiment [3] and in experiment [4] was “no binding (tested: 20 nmoles)” in each case.
As to “βCAT_(750-781), β-catenin residues 750-781 (from UniProt P35222 750-781) (peptide)”, the binding entry in experiment [6] is “binds”.
